Consider six molecules from PMC3737554.

By UniProt entry, the sequences of proteins in these tests, tags left out. Where a name states a change or a piece, a line headed by the entry shows the natural chain unless it says otherwise.
UniProt P03372: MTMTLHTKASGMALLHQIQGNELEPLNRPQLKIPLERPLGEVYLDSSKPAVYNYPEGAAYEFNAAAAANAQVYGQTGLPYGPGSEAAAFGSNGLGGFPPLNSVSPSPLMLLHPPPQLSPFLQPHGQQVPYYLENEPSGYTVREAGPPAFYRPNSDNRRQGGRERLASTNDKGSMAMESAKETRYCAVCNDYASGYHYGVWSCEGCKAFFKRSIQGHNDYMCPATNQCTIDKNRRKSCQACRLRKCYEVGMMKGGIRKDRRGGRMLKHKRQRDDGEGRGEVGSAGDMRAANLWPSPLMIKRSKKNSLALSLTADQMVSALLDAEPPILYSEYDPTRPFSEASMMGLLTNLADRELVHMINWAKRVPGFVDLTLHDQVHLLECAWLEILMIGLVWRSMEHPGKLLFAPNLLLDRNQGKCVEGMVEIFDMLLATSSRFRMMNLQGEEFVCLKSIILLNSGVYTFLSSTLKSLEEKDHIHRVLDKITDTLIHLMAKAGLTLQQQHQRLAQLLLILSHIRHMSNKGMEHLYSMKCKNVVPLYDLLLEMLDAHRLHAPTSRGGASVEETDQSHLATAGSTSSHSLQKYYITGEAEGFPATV
UniProt O94953: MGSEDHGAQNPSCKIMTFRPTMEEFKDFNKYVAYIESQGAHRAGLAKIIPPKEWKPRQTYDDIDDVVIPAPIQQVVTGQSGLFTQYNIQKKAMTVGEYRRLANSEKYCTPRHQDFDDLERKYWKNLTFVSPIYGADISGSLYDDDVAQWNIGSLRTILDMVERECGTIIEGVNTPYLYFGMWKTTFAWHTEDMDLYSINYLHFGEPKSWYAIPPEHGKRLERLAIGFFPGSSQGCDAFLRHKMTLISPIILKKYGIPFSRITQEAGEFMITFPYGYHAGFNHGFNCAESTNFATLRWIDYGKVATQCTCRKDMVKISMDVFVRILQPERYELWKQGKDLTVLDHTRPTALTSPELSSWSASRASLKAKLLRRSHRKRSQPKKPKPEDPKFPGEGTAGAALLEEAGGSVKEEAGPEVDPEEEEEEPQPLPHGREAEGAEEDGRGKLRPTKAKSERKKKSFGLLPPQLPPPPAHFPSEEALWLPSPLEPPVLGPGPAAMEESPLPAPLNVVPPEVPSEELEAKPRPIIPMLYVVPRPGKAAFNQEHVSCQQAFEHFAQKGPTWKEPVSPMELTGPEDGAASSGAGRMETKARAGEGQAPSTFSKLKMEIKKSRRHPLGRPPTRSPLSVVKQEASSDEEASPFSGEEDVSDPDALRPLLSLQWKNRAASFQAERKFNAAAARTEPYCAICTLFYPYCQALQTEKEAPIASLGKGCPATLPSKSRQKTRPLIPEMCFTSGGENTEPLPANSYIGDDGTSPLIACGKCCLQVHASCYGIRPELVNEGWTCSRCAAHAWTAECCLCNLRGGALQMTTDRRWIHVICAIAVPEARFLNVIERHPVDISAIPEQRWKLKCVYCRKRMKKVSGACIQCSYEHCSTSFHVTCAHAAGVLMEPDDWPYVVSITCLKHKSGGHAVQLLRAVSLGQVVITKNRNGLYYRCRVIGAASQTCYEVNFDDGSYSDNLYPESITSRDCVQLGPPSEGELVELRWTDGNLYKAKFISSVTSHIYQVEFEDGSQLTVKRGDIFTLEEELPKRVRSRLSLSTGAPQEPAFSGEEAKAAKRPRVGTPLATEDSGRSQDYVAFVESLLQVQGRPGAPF
UniProt P23771: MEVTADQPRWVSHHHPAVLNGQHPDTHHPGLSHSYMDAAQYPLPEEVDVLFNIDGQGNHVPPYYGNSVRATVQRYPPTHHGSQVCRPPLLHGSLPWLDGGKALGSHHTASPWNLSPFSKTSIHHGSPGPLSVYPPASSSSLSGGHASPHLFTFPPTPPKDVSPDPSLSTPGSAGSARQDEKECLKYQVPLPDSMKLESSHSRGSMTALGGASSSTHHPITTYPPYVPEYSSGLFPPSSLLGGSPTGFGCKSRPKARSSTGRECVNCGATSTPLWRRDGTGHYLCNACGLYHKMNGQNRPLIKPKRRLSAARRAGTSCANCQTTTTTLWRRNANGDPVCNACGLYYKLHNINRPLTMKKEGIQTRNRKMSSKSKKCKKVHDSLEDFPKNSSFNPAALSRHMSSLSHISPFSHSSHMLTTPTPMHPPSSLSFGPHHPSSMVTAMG

Assay [1] addresses estrogen receptor (ER), expressed from pCMV-ER in HEK293T cells (UniProt P03372). Put plainly: co-IP; HEK293T cells in serum-containing or steroid-depleted media with 10 nM E2, transfected 48 h with vectors for ER and wild-type or demethylase-dead KDM4B; IP as for the endogenous proteins, western blot.
The target in assay [2] is KDM4B (histone H3 lysine 9 tri-/di-methyl demethylase), endogenous (human (endogenous in MCF-7 and T47D)) (UniProt O94953). Put plainly: co-IP; endogenous proteins; T47D cells grown in serum-containing media; IP with antibodies to KDM4B, GATA-3 or isotype control, western blot with reciprocal antibodies. Background: In western blotting, separated proteins are transferred to a membrane and probed.

Assay [3] concerns the target T1, FOXA1, endogenous (human (endogenous in MCF-7)) (UniProt P55317).
T1 sequence: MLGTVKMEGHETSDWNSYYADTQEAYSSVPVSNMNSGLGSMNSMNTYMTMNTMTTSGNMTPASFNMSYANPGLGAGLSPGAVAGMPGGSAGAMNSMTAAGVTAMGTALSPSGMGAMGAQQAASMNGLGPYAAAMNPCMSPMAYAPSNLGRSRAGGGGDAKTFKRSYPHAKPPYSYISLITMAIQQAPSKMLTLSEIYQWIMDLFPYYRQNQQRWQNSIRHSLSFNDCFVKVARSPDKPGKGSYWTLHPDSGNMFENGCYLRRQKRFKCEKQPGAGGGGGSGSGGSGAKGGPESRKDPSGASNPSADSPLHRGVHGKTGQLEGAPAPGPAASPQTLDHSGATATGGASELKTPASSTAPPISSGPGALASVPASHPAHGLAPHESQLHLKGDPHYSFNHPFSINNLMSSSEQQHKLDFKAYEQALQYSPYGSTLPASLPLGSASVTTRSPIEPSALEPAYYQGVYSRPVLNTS
Kind of assay: co-IP; MCF-7 cells transiently transfected with pCMV-HA-KDM4B for 48 h; IP with anti-FOXA1 antibody, western blot with a KDM4B antibody.

The target in assay [4] is GATA-3, endogenous (human (endogenous in T47D)) (UniProt P23771). Kind of assay: re-ChIP; T47D cells, steroid-depleted media, with or without 10 nM E2 for 45 min, formaldehyde-fixed chromatin; first ChIP with anti-GATA-3, eluted in 10 mM DTT, second ChIP with anti-KDM4B or isotype control; quantitative PCR of Pro A, Enh1 and Enh2 of the ER gene.
Assay [5] shares this target. Put plainly: co-IP; endogenous proteins; T47D cells grown in serum-containing media; IP with antibodies to KDM4B, GATA-3 or isotype control, western blot with reciprocal antibodies.
The target in assay [6] is KDM4B (histone H3 lysine 9 tri-/di-methyl demethylase), endogenous (human (endogenous in MCF-7 and T47D)) (UniProt O94953). Put plainly: co-IP; endogenous proteins; MCF-7 cells grown in serum-containing media; IP with anti-ER, anti-KDM4B or control antibodies, western blot.

No constants are given. Whether binding was seen depends on the method and setting. For some of these results: Binding seen in cells or lysates may run through a third protein. Some entries that bind do so weakly or less than the wild type.

Consider “HA-KDM4B, wild type, expressed in HEK293T cells (from UniProt O94953 1-1096) (enzyme)”, for which, in assay [1], the binding entry is given as “binds”.
With “GATA-3, endogenous (from UniProt P23771 1-443)”, the binding result in assay [2] is “binds”.
Turning to “HA-KDM4B, wild type, expressed in MCF-7 cells (from UniProt O94953 1-1096) (enzyme)”, the binding result in assay [3] was “binds”.
“KDM4B (histone H3 lysine 9 tri-/di-methyl demethylase), endogenous (from UniProt O94953 1-1096) (enzyme)”: the binding result in assay [4] and in assay [5] was “binds” in each case.
As to “HA-KDM4B H189G/E191Q (demethylase-dead), expressed in HEK293T cells (from UniProt O94953 1-1096) (enzyme)”, the binding entry in assay [1] is “binds”.

B1: FOXA1, endogenous (protein, UniProt P55317 1-472)
chain: MLGTVKMEGHETSDWNSYYADTQEAYSSVPVSNMNSGLGSMNSMNTYMTMNTMTTSGNMTPASFNMSYANPGLGAGLSPGAVAGMPGGSAGAMNSMTAAGVTAMGTALSPSGMGAMGAQQAASMNGLGPYAAAMNPCMSPMAYAPSNLGRSRAGGGGDAKTFKRSYPHAKPPYSYISLITMAIQQAPSKMLTLSEIYQWIMDLFPYYRQNQQRWQNSIRHSLSFNDCFVKVARSPDKPGKGSYWTLHPDSGNMFENGCYLRRQKRFKCEKQPGAGGGGGSGSGGSGAKGGPESRKDPSGASNPSADSPLHRGVHGKTGQLEGAPAPGPAASPQTLDHSGATATGGASELKTPASSTAPPISSGPGALASVPASHPAHGLAPHESQLHLKGDPHYSFNHPFSINNLMSSSEQQHKLDFKAYEQALQYSPYGSTLPASLPLGSASVTTRSPIEPSALEPAYYQGVYSRPVLNTS
In the case of B1, the binding result in assay [6] is on record as “binds”.
